Assay [1] concerns the target T1, Lactococcus lactis Csm2 with N-terminal His6-tag (Lactococcus lactis) (UniProt L0CFW2).
T1 sequence: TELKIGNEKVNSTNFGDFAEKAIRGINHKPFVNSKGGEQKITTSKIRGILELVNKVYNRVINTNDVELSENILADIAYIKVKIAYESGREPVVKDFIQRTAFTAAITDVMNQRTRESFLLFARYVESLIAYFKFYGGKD
In words: co-purification.

The target in assay [2] is T2, Lactococcus lactis Csm3 with N-terminal His6-tag (ΔCsm2-LlCsm) (Lactococcus lactis) (UniProt L0CEA3).
T2 sequence: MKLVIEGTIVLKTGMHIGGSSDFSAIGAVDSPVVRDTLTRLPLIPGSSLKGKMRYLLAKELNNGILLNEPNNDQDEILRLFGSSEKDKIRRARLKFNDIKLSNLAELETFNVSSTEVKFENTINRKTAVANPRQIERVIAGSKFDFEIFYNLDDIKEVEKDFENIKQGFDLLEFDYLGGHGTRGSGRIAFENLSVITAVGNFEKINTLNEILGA
Kind of assay: co-purification.

Assay [3] concerns the target T3, Lactococcus lactis Csm3 Asp30Ala (Lactococcus lactis, UniProt L0CEA3, Asp30Ala).
T3 sequence: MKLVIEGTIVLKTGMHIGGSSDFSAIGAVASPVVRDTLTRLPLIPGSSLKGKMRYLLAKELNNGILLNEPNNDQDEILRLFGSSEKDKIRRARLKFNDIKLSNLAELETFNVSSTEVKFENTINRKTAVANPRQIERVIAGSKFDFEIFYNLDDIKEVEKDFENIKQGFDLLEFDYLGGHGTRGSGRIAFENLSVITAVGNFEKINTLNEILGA
Kind of assay: cryo-EM structure.

Assay [4] addresses T1, Lactococcus lactis Csm2 with N-terminal His6-tag (Lactococcus lactis). In words: cryo-EM structure.
The target is the same in assay [5]. Kind of assay: cryo-EM structure. The source holds these as a separate data set.

Like-named read-outs stand apart in the source and are kept apart here. These are yes or no findings as the source states them, for the method shown. Some binding calls cover weakened binding; strength is not graded here. For some of these results: Sequences can lack the tags named with a protein.

B1: Lactococcus lactis Csm4 (protein, UniProt L0CFH1)
chain: MKIIKLYFESPVHFGEKRLSESKITFSADTLFSALMIEAVGLGKEDEFYQLASNNLVKFSDAFPFIDQYYYIPKPMFNLKLEKEDENPSKAFKKLLYVPIDSLEDYLSGGLDAYFERESFNLGKLALSEKVQQHDFKDSEPYNVGTFTFKENTGLYVLIEQTHPLLEELLENLQYSGIGGKRNSGYGKFKFEILEDSDIEDLFSAKGNRKILLSGALPKDAELEQALKNASYLLERRGGFVQSDTYATNLVKKQDLYVFKSGSTFENSFDGDIYQVGKKGNHPVYKYAKSFFLEVSV
For B1, the binding entry in assay [1], in assay [2], in assay [3], in assay [3] (record 2) and in assay [3] (record 3) was “binds” throughout.

B2: Lactococcus lactis Csm3, wild type, untagged (protein, UniProt L0CEA3)
chain: MKLVIEGTIVLKTGMHIGGSSDFSAIGAVDSPVVRDTLTRLPLIPGSSLKGKMRYLLAKELNNGILLNEPNNDQDEILRLFGSSEKDKIRRARLKFNDIKLSNLAELETFNVSSTEVKFENTINRKTAVANPRQIERVIAGSKFDFEIFYNLDDIKEVEKDFENIKQGFDLLEFDYLGGHGTRGSGRIAFENLSVITAVGNFEKINTLNEILGA
As to B2, in assay [1], the binding result is listed as “binds”.

B3: Lactococcus lactis Csm5 (protein, UniProt L0CG31)
chain: MKKTYRVTLTALGPIFIGGGEKLKKYEYIFDKQKKVAHMIDHTKFTKYLLEKNLLDDFTSRVNSHFDLYDYLVNKKGIVFMPLVKYSVPVAQFRTEVKNRFGKPISSPPMNDLNTFVKDAFGRPYIPGSSLKGALRTAILNDLKEDTKENEVFAHLQVSDSETIDLENLKVYQKVDYSKTAKPLPLYRECLKPNTEITFTVSFDDEYLTLKKIQNALHKTYQHYYIKWLKGGKVGETLIKGVYDSHADELKKNTFALDQPSQNQGEIIYIGGGAGFVSKTLHYKSKNRDQARNDSFDILKQLFRTTYSKMRSVPDNVPVALKLAVETKTFNGRVTGKHYLEMGKARIKLEEL
As for B3, the binding result in assay [1], in assay [4], in assay [5], in assay [3], in assay [3] (record 2) and in assay [3] (record 3) was “binds” in each case.

B4: Lactococcus lactis Csm6, co-expressed with the LlCsm complex (protein, UniProt L0CEJ8 1-409)
chain: MKILISAVGDTDPIRNFHDGPLLHIVRVYRPEKIVLVHSERSLTKHDKLVKALKSIKDYSPEIIQDGVVLPDAQVAIFDEMYDTVSSIVKKYISDDEIILNISSATPQIISAMFAVNRISDFNVTAVQVKTPQHKSNEGLRHDNQEDIDKLIETNLDNQSDYENRTLADTGMKFSQDLTKRNLKALIDNYDYQGALELLKKQKSFSNIKELRKKLTEISDTIKIQGMPDKIVKSKLSNQAKSALNSYLNIDRNHKQGNIAEVLIRVKSLVEFILEDYLNNHFLDVITYKDGKPFLNASKYPEILKKFQEDAEMRGKEYHSGYLSLPAYIGILKFFEPNHDLLKHIYKIQEINQDRNKVAHSLQAFDRKNLKKVSSAVFASKQILLASFDIDNHWFSFYEDLNQEIKKLL
For B4, the binding entry in assay [1] was “no binding”.

For the origin of these results see doi:10.1101/2021.01.27.428455 (bioRxiv, 2021).
